Values of other authors, collected in patent publication US12150919B2 (priority 2023, dated 2024).

Settings: water at acidic and neutral pH; cited from earlier work

In the case of `COc1cc(/C=C/C(=O)CC(=O)/C=C/c2ccc(O)c(OC)c2)ccc1O` [Curcumin, (1E,6E)-1,7-bis(4-hydroxy-3′-methoxyphenyl)-1,6-heptadiene-3,5-dione], the solubility in water is listed as under 0.1 µg/mL.
